# Measurements published in patent US7311743B2, “Biofiltration apparatus and method for reducing methyl bromide concentration in a volume of gas” (Energy Resource Institute, Inc., priority 2004, dated 2007).
# System: methyl bromide-degrading bacteria
# Assay: Methyl bromide removal in the biotrickling filter
# Conditions: for Elimination capacity / Outlet concentration: EBRT = 94 s
# Source text: A biotrickling filter was constructed as schematically represented in FIG. 2. The apparatus included three packed bed sections filled with lava rock, perlite or polyurethane as packing materials. Other equipment included an air supply, a methyl bromide supply, recycle liquid circulation, a nutrient supply (as a complete mineral medium), and a pH control by automatic addition of NaOH. The biotrickling filter was usually operated at standard conditions as specified in Table 1.
# Cultures of methyl bromide-degrading bacteria were obtained by inoculating or exposing the substrate component of the apparatus with a variety of natural sources or materials, such as soil and sediment. A continuous supply of a low concentration (about 0 to about 10 g/m^3) of methyl bromide was supplied to the apparatus. The first signs of methyl bromide removal were observed after about 6-12 days of operation of the apparatus. The methyl bromide elimination capacity seemed to reach a maximum value after about 35-40 days of operation. During operation, the pH in the recycle liquid declined, small amounts of bromide were produced in the recycle liquid, and the CO2 concentration in the outlet air increased.
# The fate of methyl bromide in the biotrickling filter was determined by comparing the rate of methyl bromide removal with the rates of CO2 production, bromide ion production and NaOH consumption as expected from the biodegradation reaction stoichiometry. Biodegradation of methyl bromide and pH control occur according to the following reactions 2CH3Br+3O2→2HBr+2 CO2+2H2O Equation 3 HBr+NaOH→NaBr+H2O Equation 4
# The effect of the liquid recycle or trickling rate was examined at the lower and higher end of the range of recycle rates commonly employed in biotrickling filters. Methyl bromide removal was the same at a trickling rates of 2.55 and 22.2 L/h, corresponding to superficial liquid velocities of 2.0 and 17.7 m/h, respectively (Table 2).
# The maximum elimination capacity of methyl bromide in the biotrickling filter was determined by stepwise increasing the methyl bromide concentration. Depending on the inlet concentration, the following phases can be distinguished: […]
# [1] = gas flow cocurrent, inlet 3.042 g/m^3
# [2] = gas flow countercurrent (standard operation), inlet 3.713 g/m^3
# [3] = superficial liquid velocity 2.0 m/h (standard operation), inlet 2.927 g/m^3
# [4] = superficial liquid velocity 17.7 m/h, inlet 2.927 g/m^3
smiles,measurement,setting,value
CBr [Methyl bromide],Elimination capacity,[1],73.3 g/m^3 · h
same,Outlet concentration,[1],1.122 g/m^3
same,Elimination capacity,[2],98.6 g/m^3 · h
same,Outlet concentration,[2],1.130 g/m^3
same,Removed methyl bromide recovered as CO2,"molar carbon basis, inlet concentrations 0-5.5 g/m^3",95%
same,Bromide ion production relative to the amount of methyl bromide removed,"on average, inlet concentrations 0-5.5 g/m^3",108%
same,Elimination capacity,[3],99.8 g/m^3 · h
same,Outlet concentration,[3],0.312 g/m^3
same,Elimination capacity,[4],102.3 g/m^3 · h
same,Outlet concentration,[4],0.249 g/m^3
